PubChem BioAssay AID1259254 | NCATS, 2017
The whole screen tested about 59,000 reagents; shown is a random part of them. About 1,550 of all reagents (2.6%) count as active. 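G2 share is only a proxy for re-replication; each gene was hit by three separate siRNAs, and active genes were retested.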 Entries without a mark were called inactive. The numbers tell different reagents against one gene apart. Not all columns of the deposit are shown. The record does not give: the amount of reagent.

- Test: 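Finding genes that stop cells copying their DNA twice in one cycle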 (primary screen)
- System: human HCT116 colorectal cancer cells
- Knock-down reagent: single siRNA against human genes
- Duration: 3 days
- Measurement: 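Nuclei stained with Hoechst and imaged; cell-cycle phase assigned by DNA content; G2 share scaled per plate, non-targeting siRNA 0%, GMNN siRNA 100%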
- Scale: G2 robust z-score and G2 cells, % of GMNN control: higher = more G2 cells, more excess DNA replication
- Active means: 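An siRNA counts as active if its G2 robust z-score lies at least 5 MADs above the screen median; here such calls match roughly 38% of GMNN control or more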

Target gene	reagent no.	G2 robust z-score	G2 cells, % of GMNN control
LRRC8D (GeneID 55144)	1	-0.503	-0.572
LRRC8D (GeneID 55144)	2	4.51	34.7
LRRC8D (GeneID 55144)	3	-0.639	-1.53
PTPN4 (GeneID 5775)	1	6.17 (active)	46.3
PTPN4 (GeneID 5775)	2	0.189	4.29
PTPN4 (GeneID 5775)	3	0.619	7.33
ECHS1 (GeneID 1892)	1	0.573	7
ECHS1 (GeneID 1892)	2	0.00716	3.02
ECHS1 (GeneID 1892)	3	-0.365	0.402
RIC3 (GeneID 79608)	1	1.23	11.6
RIC3 (GeneID 79608)	2	0.524	6.66
RIC3 (GeneID 79608)	3	-0.894	-3.32
CACNA1F (GeneID 778)	1	-0.292	0.916
CACNA1F (GeneID 778)	2	-0.817	-2.78
CACNA1F (GeneID 778)	3	-0.877	-3.21
CCNB1IP1 (GeneID 57820)	1	4.29	33.2
CCNB1IP1 (GeneID 57820)	2	1.01	10.1
CCNB1IP1 (GeneID 57820)	3	0.898	9.29
KAT6A (GeneID 7994)	1	1.6	14.2
KAT6A (GeneID 7994)	2	1.64	14.5
KAT6A (GeneID 7994)	3	-0.696	-1.93
HOXD10 (GeneID 3236)	1	1.51	13.6
HOXD10 (GeneID 3236)	2	-1.29	-6.1
HOXD10 (GeneID 3236)	3	-0.429	-0.0529
XKRY (GeneID 9082)	1	-0.3	0.856
XKRY (GeneID 9082)	2	0.178	4.22
XKRY (GeneID 9082)	3	-0.577	-1.09
CYFIP1 (GeneID 23191)	1	2.49	20.5
CYFIP1 (GeneID 23191)	2	-0.19	1.63
CYFIP1 (GeneID 23191)	3	1.25	11.8
TRPM2 (GeneID 7226)	1	0.895	9.26
TRPM2 (GeneID 7226)	2	-0.667	-1.73
TRPM2 (GeneID 7226)	3	1.1	10.7
SCP2D1 (GeneID 140856)	1	-0.973	-3.88
SCP2D1 (GeneID 140856)	2	-0.656	-1.65
SCP2D1 (GeneID 140856)	3	0.253	4.75
MTERF1 (GeneID 7978)	1	0.797	8.57
MTERF1 (GeneID 7978)	2	-0.348	0.522
MTERF1 (GeneID 7978)	3	0.715	8
ADGRA3 (GeneID 166647)	1	-1.37	-6.67
ADGRA3 (GeneID 166647)	2	-1.24	-5.76
ADGRA3 (GeneID 166647)	3	-0.0115	2.89
COL5A3 (GeneID 50509)	1	-0.417	0.0353
COL5A3 (GeneID 50509)	2	1.46	13.3
COL5A3 (GeneID 50509)	3	0.919	9.43
ARL3 (GeneID 403)	1	5.02 (active)	38.3
ARL3 (GeneID 403)	2	3.69	29
ARL3 (GeneID 403)	3	0.325	5.26
LY6G6C (GeneID 80740)	1	0.168	4.15
LY6G6C (GeneID 80740)	2	-0.211	1.48
LY6G6C (GeneID 80740)	3	0.747	8.22
GYPA (GeneID 2993)	1	-0.135	2.02
GYPA (GeneID 2993)	2	1.34	12.4
GYPA (GeneID 2993)	3	-0.695	-1.92
H3C13 (GeneID 653604)	1	-0.134	2.03
H3C13 (GeneID 653604)	2	-0.938	-3.63
H3C13 (GeneID 653604)	3	1.69	14.9
RHOF (GeneID 54509)	1	-0.534	-0.787
RHOF (GeneID 54509)	2	0.604	7.22
RHOF (GeneID 54509)	3	1.44	13.1
PLAT (GeneID 5327)	1	7.72 (active)	57.3
PLAT (GeneID 5327)	2	-0.429	-0.0493
PLAT (GeneID 5327)	3	-0.194	1.6
MTND5P10 (GeneID 643031)	1	0.935	9.54
MTND5P10 (GeneID 643031)	2	1.27	11.9
MTND5P10 (GeneID 643031)	3	-0.518	-0.674
HORMAD1 (GeneID 84072)	1	-0.296	0.885
HORMAD1 (GeneID 84072)	2	3.23	25.7
HORMAD1 (GeneID 84072)	3	-1.09	-4.68

In a second layout: results already given
Target gene,reagent no.,G2 robust z-score,"G2 cells, % of GMNN control"
CACNA1F (GeneID 778),2,-0.817,-2.78
CACNA1F (GeneID 778),3,-0.877,-3.21
CCNB1IP1 (GeneID 57820),1,4.29,33.2
CCNB1IP1 (GeneID 57820),2,1.01,10.1
CCNB1IP1 (GeneID 57820),3,0.898,9.29
KAT6A (GeneID 7994),1,1.6,14.2
KAT6A (GeneID 7994),2,1.64,14.5
KAT6A (GeneID 7994),3,-0.696,-1.93
HOXD10 (GeneID 3236),1,1.51,13.6
